To fix the notation:
B1: glmS ribozyme (parent)
chain: AUAAAAGCGCCAGAACUACAGAAAUGUAGUUGACGAGGAGGAGGUUUAUCGAAUUUUCGGCGGAUGCCUCCAAA

The results in this text go back to the supplement of paper PMC7125110.

± gives the standard error. Many of these values have a large error.

The first data set covers variants of B1. Description: self-cleavage kobs at 160 uM GlcN6P; higher = faster cleavage; RNA array. The conditions noted are these: with glucosamine-6-phosphate. In outline: (§1)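 Tracking of barcoded ribozyme variants used a hybridised Cy3 probe at 37 °C, after in situ transcription by E. coli RNA polymerase on sequenced MiSeq chips. The flowed solution held 40 μM to 10 mM glucosamine-6-phosphate in HEPES/KCl/Mg(OAc)2 buffer, and imaging ran over ~14 h. kobs was taken from exponential decay fits of normalised per-tile medians, and kcat and KM from weighted Michaelis–Menten fits.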
With A53C U69A, the “self-cleavage kobs at 160 uM GlcN6P” value worked out at 1.8e-05 ± 1.6e-05 s⁻¹.

Consider A15U C68G, for which the “self-cleavage kobs at 160 uM GlcN6P” value is 1.62e-05 ± 1.6e-05 s⁻¹.

Consider A36G U69C C71G, for which the “self-cleavage kobs at 160 uM GlcN6P” value stood at 3.59e-05 ± 2.6e-05 s⁻¹.

With G29U G32U, the “self-cleavage kobs at 160 uM GlcN6P” value came out at 1.63e-05 ± 1e-05 s⁻¹.

In the case of U55G U57A, the “self-cleavage kobs at 160 uM GlcN6P” value came to 1.74e-05 ± 1.6e-05 s⁻¹.

As for C11A U31A C50G C67G, the “self-cleavage kobs at 160 uM GlcN6P” value is 3.27e-05 ± 2.3e-05 s⁻¹.

For A53U G66C, the “self-cleavage kobs at 160 uM GlcN6P” value worked out at 3.5e-05 ± 2.6e-05 s⁻¹.

As for G43C C67G, the “self-cleavage kobs at 160 uM GlcN6P” value worked out at 1.71e-05 ± 1.4e-05 s⁻¹.

In another data set the parent is B1. Description: self-cleavage kobs at 40 uM GlcN6P; higher = faster cleavage; RNA array. The conditions noted are these: with glucosamine-6-phosphate. In outline: as §1
For the variant A48G C67A C71G, the “self-cleavage kobs at 40 uM GlcN6P” value was found to be 3.03e-05 ± 2.5e-05 s⁻¹.

As to C11U C70G C71U, the “self-cleavage kobs at 40 uM GlcN6P” value amounted to 1.95e-05 ± 1.9e-05 s⁻¹.

Regarding C8U C16U G37U U54G C68A, the “self-cleavage kobs at 40 uM GlcN6P” value is 6.82e-05 ± 3.5e-05 s⁻¹.

Turning to A36U C68G C71U, the “self-cleavage kobs at 40 uM GlcN6P” value was 3.54e-05 ± 2.1e-05 s⁻¹.

As to U47G C58A G59U C70G, the “self-cleavage kobs at 40 uM GlcN6P” value is 3.28e-05 ± 2.1e-05 s⁻¹.

As for U46G U56C, the “self-cleavage kobs at 40 uM GlcN6P” value was 2.12e-05 ± 1.5e-05 s⁻¹.

For the variant A14G C70U C71G, the “self-cleavage kobs at 40 uM GlcN6P” value was 1.28e-05 ± 1.2e-05 s⁻¹.

G43C C67G: the “self-cleavage kobs at 40 uM GlcN6P” value amounted to 1.86e-05 ± 1.6e-05 s⁻¹.

G43C C67A: the “self-cleavage kobs at 40 uM GlcN6P” value was 1.39e-05 ± 9.4e-06 s⁻¹.

In the next data set the parent is B1. Description: self-cleavage kobs at 2500 uM GlcN6P; higher = faster cleavage; RNA array. The conditions noted are these: with glucosamine-6-phosphate. A digest of the protocol: as §1
On to G7U A12C C50G C61A, for which the “self-cleavage kobs at 2500 uM GlcN6P” value is 5.04e-05 ± 3.4e-05 s⁻¹.

For C10U G38U U57G C61G G66U, the “self-cleavage kobs at 2500 uM GlcN6P” value was determined as 6.15e-05 ± 3.4e-05 s⁻¹.

On to A39G U56A G59A, for which the “self-cleavage kobs at 2500 uM GlcN6P” value worked out at 2.77e-05 ± 2.2e-05 s⁻¹.

On to C11U C70G C71U, for which the “self-cleavage kobs at 2500 uM GlcN6P” value came to 3.68e-05 ± 1.9e-05 s⁻¹.

Turning to C8G C11G A14C A39G C50G, the “self-cleavage kobs at 2500 uM GlcN6P” value was found to be 3.16e-05 ± 2.3e-05 s⁻¹.

In the case of G9C A48G C67G C68A, the “self-cleavage kobs at 2500 uM GlcN6P” value came to 8.29e-05 ± 4.4e-05 s⁻¹.

Consider G29A U31C G41U, for which the “self-cleavage kobs at 2500 uM GlcN6P” value stood at 3.03e-05 ± 2.9e-05 s⁻¹.

As to A6G C67G C68A, the “self-cleavage kobs at 2500 uM GlcN6P” value was 1.77e-05 ± 1.6e-05 s⁻¹.

For U31C G51A A53U C70G, the “self-cleavage kobs at 2500 uM GlcN6P” value amounted to 3.64e-05 ± 3.3e-05 s⁻¹.

Take U30G A33C: the “self-cleavage kobs at 2500 uM GlcN6P” value stood at 2.21e-05 ± 1.4e-05 s⁻¹.

Regarding G37A C58A, the “self-cleavage kobs at 2500 uM GlcN6P” value amounted to 2.41e-05 ± 1.3e-05 s⁻¹.

For the variant A12G U30G A53U, the “self-cleavage kobs at 2500 uM GlcN6P” value stood at 1.42e-05 ± 1.4e-05 s⁻¹.

As to C16A C50G U55C G63C C70G, the “self-cleavage kobs at 2500 uM GlcN6P” value stood at 0.000225 ± 0.00013 s⁻¹.

Turning to G29U U55G G66U C67U, the “self-cleavage kobs at 2500 uM GlcN6P” value was found to be 2.18e-05 ± 2e-05 s⁻¹.

In the case of U31C C61G, the “self-cleavage kobs at 2500 uM GlcN6P” value amounted to 3.24e-05 ± 2.6e-05 s⁻¹.

C11U C50G U55G: the “self-cleavage kobs at 2500 uM GlcN6P” value stood at 3.84e-05 ± 2.1e-05 s⁻¹.

Variants of B1 are the subject of a further data set. Description: self-cleavage kobs at 640 uM GlcN6P; higher = faster cleavage; RNA array. The conditions noted are these: with glucosamine-6-phosphate. A digest of the protocol: as §1
As to A12U C50G C61U, the “self-cleavage kobs at 640 uM GlcN6P” value is 2.88e-05 ± 2.1e-05 s⁻¹.

In the case of U54G U57C, the “self-cleavage kobs at 640 uM GlcN6P” value is 2.43e-05 ± 1.6e-05 s⁻¹.

For the variant A14U C16G U65A, the “self-cleavage kobs at 640 uM GlcN6P” value was 3.11e-05 ± 2.8e-05 s⁻¹.

For U31C G66U, the “self-cleavage kobs at 640 uM GlcN6P” value was determined as 2.85e-05 ± 1.4e-05 s⁻¹.

With A39U G66A C68G, the “self-cleavage kobs at 640 uM GlcN6P” value was 2.57e-05 ± 2e-05 s⁻¹.

Consider A14U U46G G63A U65A C70G C71G, for which the “self-cleavage kobs at 640 uM GlcN6P” value came to 0.00046 ± 0.00025 s⁻¹.

Take C34U G35A U56G: the “self-cleavage kobs at 640 uM GlcN6P” value was determined as 4.83e-05 ± 2.9e-05 s⁻¹.

Consider G29U U55G G66U C67U, for which the “self-cleavage kobs at 640 uM GlcN6P” value is 4.09e-05 ± 2.7e-05 s⁻¹.

C11A G29U C50G: the “self-cleavage kobs at 640 uM GlcN6P” value came out at 0.000351 ± 0.00022 s⁻¹.

As for C58U C67U, the “self-cleavage kobs at 640 uM GlcN6P” value came to 1.91e-05 ± 1.1e-05 s⁻¹.

Another data set covers variants of B1. Description: self-cleavage kobs at 10000 uM GlcN6P; higher = faster cleavage; RNA array. The conditions noted are these: with glucosamine-6-phosphate. In outline:
as §1
As for G37A C58A, the “self-cleavage kobs at 10000 uM GlcN6P” value stood at 1.6e-05 ± 1.2e-05 s⁻¹.

As to U47G C58A G59U C70G, the “self-cleavage kobs at 10000 uM GlcN6P” value turned out to be 2.11e-05 ± 1.6e-05 s⁻¹.

Consider A14U U46G G63A U65A C70G C71G, for which the “self-cleavage kobs at 10000 uM GlcN6P” value amounted to 2.57e-05 ± 2.2e-05 s⁻¹.
